These are yes or no findings as the source states them, for the method shown. Binding can be weak; no strength is given.
B1: M0122 (antibody, V domains shown)
VH: QSVKESGGRLVTPGTPLTLTCTVSGFSLYNYAMNWVRQAPGKGLEWIGIINTDGNTNYASWAKGRFTISTTSSTTVDLKITSPTTEDTATYFCPRAVGYHHHALDPWGPGTLVTVSS
VL: ELVLTQSPSVSAALGASAKLTCTLSSAHKTYTIDWYQQQQGEAPRYLMQLKSDGSYTKGTGVPDRFSGSSSGADRYLIIPSVQADDEADYYCGTDYGGGYVFGGGTQLTVTG
B2: M0124 (antibody, V domains shown)
VH: QSVKESGGRLVTPGTPLTLTCTVSGIDLSRYWMNWVRQAPGKGLEWIGYITTNDKTYYANWAKGRYTISKTSSTTVDLKMTSLTTEDTATYFCARRSSGAYDIWGPGTLVTISS
VL: QPVLTQSPSASATLGASAKLTCTLSSAHKTYYIEWYQQQQGEAPRYLMQLKSDGTYTKGTGVPDRFSGSSSGADRYLIISSVQAEDEADYICGVTGGNVYVFGGGTQLTVTG
B3: M0251 (VHH)
VHH: EVQLVESGGGLVQAGGSLRLSCVASGHTFGNWAMGWFRQAPGKEREFVGAIRWSVGTTNYRDSVKGRFAISRDNARNTVYLQMNRLKPEDTAVYYCAAGTPFVLARINGYDYWGQGTQVTVSS
B4: M0123 (antibody, V domains shown)
VH: QSVKESEGRLVTPGTPLTLTCTASGFTIGSYHMSWVRQAPGKGLEWIGIIYTDGNTDYANWAKGRFTISKTSTTMDLKMTSLTAADTATYFCARRGYADYGYTFNLWGQGTLVTISS
VL: ELVLTQPASVQVNLGQTVSLTCTADTLSRNYASWYQQKPGQAPVLLIYRDTSRPSGVPDRFSGSSSGNTATLTISGAQAGDEADYYCATGDGSGSSYQFVFGGGTQLTVTG
B5: M0228 (VHH)
VHH: EVQLVESGGGLVQAGGSLRLSCAASGRTINDYTMGWFRQAPGKDREFVSAINWRGSSTYYADSVKGRFTISRDNAKKTIYLQMNLLKPEDTAVYYCARQVSPYVELTATAAYWGQGTQVTVSS

Target: cynomolgus monkey C3 (cynomolgus monkey (Macaca fascicularis))
Assay: sandwich ELISA, cyno C3 captured from serum

Binder	binding
B1	binds
B2	binds
B3	binds

Target: cynomolgus monkey C3 (cynomolgus monkey (Macaca fascicularis))
Assay: sandwich ELISA, cyno C3 captured from serum by goat antiserum

Binder	binding
B1	binds
B2	binds
B3	binds

Target: cynomolgus monkey C3 (cynomolgus monkey (Macaca fascicularis))
Assay: ELISA, cyno C3 captured from cynomolgus serum by coated polyclonal goat antiserum

Binder	binding
B1	binds
B2	binds
B3	binds
B4	no binding (tested: about 2000 nM)
B5	no binding (tested: about 2000 nM)

Source: patent publication US20220259296A1
